This is an account of results in PMC7862700.

The chains behind the UniProt entries cited, without tags or fusion partners. Where a name states a change or a piece, a line headed by the entry shows the natural chain unless it says otherwise.
UniProt P50549: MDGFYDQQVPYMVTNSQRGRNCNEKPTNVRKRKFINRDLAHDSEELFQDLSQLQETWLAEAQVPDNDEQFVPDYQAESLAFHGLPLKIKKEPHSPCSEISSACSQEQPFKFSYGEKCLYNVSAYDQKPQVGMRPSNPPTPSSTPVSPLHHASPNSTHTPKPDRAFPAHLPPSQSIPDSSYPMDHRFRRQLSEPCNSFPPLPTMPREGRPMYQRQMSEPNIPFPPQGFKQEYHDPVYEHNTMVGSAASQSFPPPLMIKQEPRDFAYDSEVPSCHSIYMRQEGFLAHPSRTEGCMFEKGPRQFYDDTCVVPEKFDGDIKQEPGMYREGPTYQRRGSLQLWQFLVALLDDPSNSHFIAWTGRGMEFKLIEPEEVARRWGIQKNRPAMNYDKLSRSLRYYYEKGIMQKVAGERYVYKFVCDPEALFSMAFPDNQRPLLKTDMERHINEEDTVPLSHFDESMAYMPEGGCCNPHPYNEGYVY

Only a part is listed here, and it is no random draw. For part of these data: At the low end of the ranking the order means little. Some of the results follow. For part of these data: The source does not settle which construct or isoform was used.

One assay has as its target T1, ERG (UniProt P11308).
T1 sequence: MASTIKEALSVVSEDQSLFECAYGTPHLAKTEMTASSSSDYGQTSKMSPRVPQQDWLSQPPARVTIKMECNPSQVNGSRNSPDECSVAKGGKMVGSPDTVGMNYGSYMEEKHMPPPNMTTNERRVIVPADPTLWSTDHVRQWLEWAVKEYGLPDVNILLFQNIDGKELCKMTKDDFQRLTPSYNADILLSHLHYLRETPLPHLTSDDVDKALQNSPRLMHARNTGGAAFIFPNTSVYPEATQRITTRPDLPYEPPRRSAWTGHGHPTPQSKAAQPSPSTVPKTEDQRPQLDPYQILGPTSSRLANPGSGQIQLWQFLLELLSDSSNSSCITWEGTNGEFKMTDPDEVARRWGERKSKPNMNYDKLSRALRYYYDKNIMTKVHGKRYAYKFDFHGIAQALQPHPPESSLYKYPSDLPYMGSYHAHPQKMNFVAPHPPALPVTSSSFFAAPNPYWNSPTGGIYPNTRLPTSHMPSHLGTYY
Nature of the assay: DAPPL (digital affinity profiling via proximity ligation, sequencing). The following applies: 10 mM Tris-HCl pH 7.5, 50 mM NaCl, 1 mM DTT, 4% glycerol, room temperature, 30 min; GST-TFs on glutathione beads, 16-mer random dsDNA library, 0.1% …; high values mean tight binding; double strand, one strand shown; scale: fold enrichment (6-mer frequency, TF over GST control).
AACATG registered a binding signal of 1.16.
With GCTTAG, the binding signal was determined as 1.18.
In the case of TTTGGT, the binding signal worked out at 1.31.
Turning to CTTGCC, the binding signal amounted to 1.24.
CGAAAG gave a binding signal of 1.04.
On the same count and under the same terms, under TATCAT stands 1.13; under GTATAT, 1.09; under TCTAGC, 1.32.
For CTTGGT, the binding signal was found to be 1.42.
GCCTTG: the binding signal is 1.26.
Sequence ATTGAA returned a binding signal of 1.05.
Still for that read-out and setting: under CGACCT stands 1.46; under CGCTTC, 2.07.
The same measure, in the same setting: under TTGACA stands 1.34; under CGCCGA, 1.1; under CTGGTT, 1.31.
Turning to ACCCGC, the binding signal is 1.21.
Sequence AGCCTC yielded a binding signal of 1.21.
TAATAG had a binding signal of 1.11.
GAATTC registered a binding signal of 1.36.
For the sequence CTTGGA, the binding signal turned out to be 1.17.
CCGGTA had a binding signal of 1.7.
GATTTC yielded a binding signal of 2.15.
For the sequence CCCTCC, the binding signal was determined as 1.41.
TAAAGA: the binding signal worked out at 1.14.
The sequence GAATAC displayed a binding signal of 0.985.
CTGAGC yielded a binding signal of 1.09.
As to CCTACA, the binding signal was found to be 1.21.
Turning to CTTATC, the binding signal was determined as 1.1.
Same read-out and setting: under CCCATG stands 1.19.
As to CTTCGG, the binding signal is 1.35.
In the case of CCCTAA, the binding signal was found to be 1.17.
Regarding CATCGA, the binding signal was 0.998.
In the case of TTTACG, the binding signal came out at 1.26.
TGGTAT yielded a binding signal of 1.31.
Sequence CCTATC yielded a binding signal of 1.15.
CGTTAC yielded a binding signal of 1.11.
Turning to GATCCT, the binding signal came out at 1.38.
Sequence TTCGTA showed a binding signal of 1.38.

The next assay concerns the target T2, ETV4 (UniProt P43268).
T2 sequence: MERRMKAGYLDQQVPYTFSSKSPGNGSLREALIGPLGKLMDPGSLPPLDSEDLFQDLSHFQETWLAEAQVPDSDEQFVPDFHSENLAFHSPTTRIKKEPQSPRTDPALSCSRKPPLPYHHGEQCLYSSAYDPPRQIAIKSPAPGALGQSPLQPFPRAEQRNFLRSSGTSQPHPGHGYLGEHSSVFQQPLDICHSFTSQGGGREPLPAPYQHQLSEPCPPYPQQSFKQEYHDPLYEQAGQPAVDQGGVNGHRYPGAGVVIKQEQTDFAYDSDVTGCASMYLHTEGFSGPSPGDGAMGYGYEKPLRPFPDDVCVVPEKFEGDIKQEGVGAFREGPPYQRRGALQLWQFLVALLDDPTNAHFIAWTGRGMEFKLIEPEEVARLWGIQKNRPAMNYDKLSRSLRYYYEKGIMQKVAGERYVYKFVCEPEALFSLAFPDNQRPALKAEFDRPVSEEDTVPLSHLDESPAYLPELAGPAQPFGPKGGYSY
Described as above. The following applies: 10 mM Tris-HCl pH 7.5, 50 mM NaCl, 1 mM DTT, 4% glycerol, room temperature, 30 min; GST-TFs on glutathione beads, 16-mer random dsDNA library, 0.1% …; high values mean tight binding; double strand, one strand shown; scale: fold enrichment (6-mer frequency, TF over GST control).
As for AACATG, the binding signal was found to be 1.11.
Take GCTTAG: the binding signal is 1.13.
TTTGGT: the binding signal is 1.24.
CTTGCC returned a binding signal of 1.33.
In turn, CGAAAG had a binding signal of 1.04.
As to TATCAT, the binding signal worked out at 1.16.
In turn, GTATAT showed a binding signal of 1.16.
For TCTAGC, the binding signal turned out to be 1.32.
For CTTGGT, the binding signal was determined as 1.47.
Sequence GCCTTG had a binding signal of 1.19.
On to ATTGAA, for which the binding signal was 1.05.
Take CGACCT: the binding signal was found to be 1.6.
As for CGCTTC, the binding signal was 2.28.
Consider TTGACA, for which the binding signal was 1.32.
For CGCCGA, the binding signal amounted to 1.19.
CTGGTT returned a binding signal of 1.33.
Consider ACCCGC, for which the binding signal worked out at 1.25.
Regarding AGCCTC, the binding signal worked out at 1.3.
The sequence TAATAG registered a binding signal of 1.18.
The sequence GAATTC displayed a binding signal of 1.36.
For CTTGGA, the binding signal came out at 1.24.
Regarding CCGGTA, the binding signal was 1.48.
GATTTC: the binding signal was 1.67.
CCCTCC had a binding signal of 1.46.
Sequence TAAAGA gave a binding signal of 1.13.
In turn, GAATAC came in with a binding signal of 1.03.
Same read-out and setting: under CTGAGC stands 1.18; under CCTACA, 1.32; under CTTATC, 1.21.
CCCATG gave a binding signal of 1.1.
Consider CTTCGG, for which the binding signal came out at 1.62.
For the sequence CCCTAA, the binding signal was determined as 1.17.
CATCGA: the binding signal turned out to be 1.07.
Take TTTACG: the binding signal came to 1.26.
Sequence TGGTAT came in with a binding signal of 1.34.
As for CCTATC, the binding signal came to 1.23.
As to CGTTAC, the binding signal is 1.14.
The sequence GATCCT came in with a binding signal of 1.31.
The sequence TTCGTA showed a binding signal of 1.44.

The target of another assay is ETV1 (UniProt P50549). The assay is described as above. Conditions: 10 mM Tris-HCl pH 7.5, 50 mM NaCl, 1 mM DTT, 4% glycerol, room temperature, 30 min; GST-TFs on glutathione beads, 16-mer random dsDNA library, 0.1% …; high values mean tight binding; double strand, one strand shown; scale: fold enrichment (6-mer frequency, TF over GST control).
Turning to GCTTAG, the binding signal is 1.27.
CTTGGT returned a binding signal of 1.53.
With TTGACA, the binding signal came to 1.33.
GAATTC: the binding signal worked out at 1.34.
Turning to CTTCGG, the binding signal was 1.72.
CATCGA: the binding signal amounted to 1.05.
